Measured values: patent US9403806B1, “Cognition enhancing compounds and compositions, methods of making, and methods of treating” (NeuroSolis, Inc., priority 2010, dated 2016)
Some entries share one result that the patent states for a list of compounds.

Molecular target: T1, human FMO1 Supersomes (Homo sapiens, UniProt Q01740)
T1 construct: purchased BD Biosciences 456241
T1 sequence (Q01740 1-532): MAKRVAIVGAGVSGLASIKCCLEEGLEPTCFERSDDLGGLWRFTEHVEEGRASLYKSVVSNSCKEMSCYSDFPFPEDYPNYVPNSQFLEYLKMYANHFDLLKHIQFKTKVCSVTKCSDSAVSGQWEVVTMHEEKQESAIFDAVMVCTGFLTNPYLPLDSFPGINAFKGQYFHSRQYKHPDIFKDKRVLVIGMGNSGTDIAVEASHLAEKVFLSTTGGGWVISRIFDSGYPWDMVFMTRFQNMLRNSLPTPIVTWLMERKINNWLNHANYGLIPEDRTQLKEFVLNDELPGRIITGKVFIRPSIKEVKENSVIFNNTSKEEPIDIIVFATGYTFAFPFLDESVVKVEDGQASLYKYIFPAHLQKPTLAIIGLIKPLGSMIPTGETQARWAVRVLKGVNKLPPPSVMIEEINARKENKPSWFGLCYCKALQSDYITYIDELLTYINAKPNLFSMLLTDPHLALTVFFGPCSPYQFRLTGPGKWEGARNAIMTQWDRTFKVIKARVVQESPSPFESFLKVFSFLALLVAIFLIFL
Test: Metabolism by flavin monoxygenase 1 (FMO1) Supersomes
Assay type: in vitro ADME
Settings: after 6 hours (FIG. 2)
Protocol: […] Aliquots were removed every 10 minutes, and 1% formic acid was added to halt the reaction. Samples were centrifuged, filtered through 0.2 micron spinfilter and the amount of each compound in the supernatants was quantitated using LC/MS/MS.

Compound	fraction metabolized in FMO Supersomes
Cc1noc([C@@H]2CCCNC2)n1 [Compound 3b, R-(−)-3-methyl-5-(piperidin-3-yl)-1,2,4-oxadiazole]	less than 30%
[2H]C([2H])([2H])c1noc([C@@H]2CCCNC2)n1 [Compound 7b, R-(−)-3-D3-methyl-5-(piperidin-3-yl)-1,2,4-oxadiazole]	less than 30%
